Test results: article PMC12517565

By UniProt entry, the sequences of proteins in these tests, tags left out.
UniProt A0A125YT62: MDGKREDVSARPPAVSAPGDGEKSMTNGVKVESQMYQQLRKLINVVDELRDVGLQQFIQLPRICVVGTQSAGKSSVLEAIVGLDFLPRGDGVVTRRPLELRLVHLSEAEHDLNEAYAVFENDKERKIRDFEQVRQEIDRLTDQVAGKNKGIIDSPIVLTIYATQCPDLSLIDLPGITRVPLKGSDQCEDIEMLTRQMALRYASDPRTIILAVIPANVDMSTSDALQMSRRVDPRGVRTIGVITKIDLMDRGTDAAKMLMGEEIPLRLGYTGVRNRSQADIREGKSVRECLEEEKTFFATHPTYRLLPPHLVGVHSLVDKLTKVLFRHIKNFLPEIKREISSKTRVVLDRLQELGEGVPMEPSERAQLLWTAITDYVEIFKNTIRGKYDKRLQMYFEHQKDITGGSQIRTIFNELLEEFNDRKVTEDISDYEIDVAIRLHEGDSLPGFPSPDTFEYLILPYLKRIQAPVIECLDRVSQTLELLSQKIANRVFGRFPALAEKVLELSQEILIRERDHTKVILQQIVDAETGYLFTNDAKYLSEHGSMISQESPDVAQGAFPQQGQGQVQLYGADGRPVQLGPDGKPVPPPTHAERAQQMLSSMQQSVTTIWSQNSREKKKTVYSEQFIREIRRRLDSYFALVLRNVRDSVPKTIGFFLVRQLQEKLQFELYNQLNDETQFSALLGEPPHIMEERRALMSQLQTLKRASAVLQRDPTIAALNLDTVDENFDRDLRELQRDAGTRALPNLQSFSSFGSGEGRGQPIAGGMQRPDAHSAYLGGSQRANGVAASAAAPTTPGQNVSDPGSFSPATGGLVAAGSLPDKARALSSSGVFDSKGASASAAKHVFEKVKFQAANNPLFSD

B1: CRT, a PLVAC transporter (protein, UniProt A0A059XKS9 1-890)
chain: MPPAHHGSGGRRRPGRGNKGKRDTEAGMTASPDPGYMRPETHAAPSQQTDVRSPASAREHRNADVGVAAPDALTPNAGEQKEVEGVAKVNVAVSSDQPPDWAPSQSDLPPSLSPTTASRPATSSRSPRARSRHSPVASSSAFSSPAPSASALTSASGVPEAPLAAPELKHTLAADEGNPEPRLEGPVERLHARQENPLTDSSDGSYILLEEGESQRACLDRKNRHLRQTTPPGVWTTADLASQNSHSASFASGFRRALLPSGGSGDHDEQASDCRASLRGMQRPCFGSPSTDTRMGAAEGLPLASRRRRQHWRRELRAFGAVALACLRASWHGMKRARLRATRWIDRNAATVRVACYTFLLLVTSTGNTICFKKMIDKMPNYSPCLTQVTTVVFVPVFFALSLYTDYAGGLPQEMADFPKRNFAVMGFLDSFSGVMAIIGAVHTTGTTQVVLQQSCIVFSLLASIVMLRKRFHAAHYLGALVIILGVLVVKLPDLLHPSSDGGGDVFVFNLLYLLSNLPTAVSCVYKEVAFRGVEMGTNYLQAWVALFQFLIGFLVLPLNALPVLGPQRVPLAELPASLWNGTRCLFGFNTIVTNCGGAGNMESPCDNCEGAWKYVGMYLSFNLLYNMFIIFVVKSGGAALTFLVSTLRLPVTALAFCSRAIMGDRAVPPKATDFYGLLVLILGLVIYRAGGIMKRRAQRRAVAAARGHTSSPMMLTPREEEQIGTIFVEEVFAAGELEDGGVTEEDETDDDTSEVEVHPVFSSVVASEPPHVYVHTKRHSHSDGGYHKLPACGSSPAAFTPFTQRMPGTGSESCSRRRNRDGDDERSPRSHACSFDEETGFAGGTGTGRHFSSPGTALSPNRVGGYEPPSMHAVQPAVIGKSRANNGCI

Columns and labels:
Assay in all cases: affinity purification with mass spectrometry; the same α-GFP (TgTEP-YFP) and α-HA (AP4ε-3xHA) immunoprecipitates from parasite lysate, on-bead trypsin digest, LC-MS/MS, volcano plots against control; biological triplicates
[1] = molecular target: T. gondii AP4 epsilon subunit (TgAP4ε) tagged with 3xHA (T. gondii) (UniProt S8F423)
[2] = molecular target: T. gondii AP4 epsilon subunit (TgAP4ε) tagged with 3xHA (T. gondii) (UniProt S8F423); remark: listed apart in the source
[3] = molecular target: T. gondii tepsin (TgTEP, TGGT1_301410) endogenously tagged with YFP (T. gondii)

Molecule	binding [1]	binding [2]	binding [3]
dynamin-related protein B (DrpB) (from UniProt A0A125YT62 1-860)	binds weakly	–	–
B1	–	binds	binds

Read-outs that look alike come from different tables or passages of the source. Results are given in words; binding and its absence hold for the method and conditions named. In cells and extracts the contact can be indirect. Here binding means that the protein was enriched with, or labelled near, the bait; the list need not be complete.
